Laboratory results reported in publication PMC4055408.
No constants are given. Whether binding was seen depends on the method and setting. Binding seen in cells or lysates may run through a third protein. Some entries that bind do so weakly or less than the wild type. Each block holds one substance with its values, some of them ahead of it.

Amino acid sequences for entries named in this document (tags omitted).
UniProt P12004: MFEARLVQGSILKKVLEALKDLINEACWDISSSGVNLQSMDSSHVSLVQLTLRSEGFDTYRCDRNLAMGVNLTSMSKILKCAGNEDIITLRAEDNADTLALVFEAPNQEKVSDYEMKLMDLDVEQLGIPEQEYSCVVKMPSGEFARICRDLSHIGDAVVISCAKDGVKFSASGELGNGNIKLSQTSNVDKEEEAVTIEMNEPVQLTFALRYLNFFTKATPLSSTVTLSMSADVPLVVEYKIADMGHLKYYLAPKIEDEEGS
UniProt P78347: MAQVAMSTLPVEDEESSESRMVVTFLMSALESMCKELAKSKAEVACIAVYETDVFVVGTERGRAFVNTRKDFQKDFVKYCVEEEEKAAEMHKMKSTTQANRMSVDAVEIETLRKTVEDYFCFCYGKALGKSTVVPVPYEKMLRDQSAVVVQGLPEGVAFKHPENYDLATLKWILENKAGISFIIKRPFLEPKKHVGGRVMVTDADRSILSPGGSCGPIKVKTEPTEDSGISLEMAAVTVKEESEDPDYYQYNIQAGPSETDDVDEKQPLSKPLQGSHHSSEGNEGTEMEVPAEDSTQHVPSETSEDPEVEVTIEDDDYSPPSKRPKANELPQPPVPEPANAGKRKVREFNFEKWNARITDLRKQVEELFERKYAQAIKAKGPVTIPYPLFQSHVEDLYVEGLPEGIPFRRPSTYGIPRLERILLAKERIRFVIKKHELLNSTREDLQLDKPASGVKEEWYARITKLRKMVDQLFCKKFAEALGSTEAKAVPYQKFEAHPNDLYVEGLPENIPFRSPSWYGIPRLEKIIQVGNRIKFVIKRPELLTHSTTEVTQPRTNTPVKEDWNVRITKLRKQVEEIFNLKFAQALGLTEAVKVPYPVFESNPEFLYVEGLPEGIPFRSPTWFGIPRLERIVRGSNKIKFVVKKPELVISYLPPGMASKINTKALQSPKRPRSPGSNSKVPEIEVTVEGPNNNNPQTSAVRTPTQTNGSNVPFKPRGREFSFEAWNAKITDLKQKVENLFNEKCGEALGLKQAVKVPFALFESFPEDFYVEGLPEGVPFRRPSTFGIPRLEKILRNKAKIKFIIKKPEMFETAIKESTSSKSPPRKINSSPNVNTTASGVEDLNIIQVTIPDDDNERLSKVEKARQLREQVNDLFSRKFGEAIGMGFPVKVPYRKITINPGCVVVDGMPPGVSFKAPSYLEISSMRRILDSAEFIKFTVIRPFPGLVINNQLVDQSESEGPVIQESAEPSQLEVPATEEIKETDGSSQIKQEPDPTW
UniProt Q9UI95: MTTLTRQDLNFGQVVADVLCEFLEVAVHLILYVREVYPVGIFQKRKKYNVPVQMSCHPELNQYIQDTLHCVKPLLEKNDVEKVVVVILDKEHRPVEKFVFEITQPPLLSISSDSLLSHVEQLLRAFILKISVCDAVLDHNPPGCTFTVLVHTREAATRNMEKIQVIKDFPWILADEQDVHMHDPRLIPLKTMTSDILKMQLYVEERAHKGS

Columns and labels:
[1] = target: PCNA, endogenous (human (endogenous in U2OS)) (UniProt P12004); assay: co-IP; U2OS cells, untreated or UV 60 J/m^2, fixed with 0.25% formaldehyde; anti-PCNA IP or anti-TFII-I IP; siControl or siTFII-I with Myc-TFII-I plasmids; cross-links reversed, immunoblot
[2] = target: TFII-I, endogenous (human (endogenous in 293T and U2OS)) (UniProt P78347); assay: co-IP; lysates of parental 293T cells; anti-TFII-I or control IgG coupled to protein A beads; lysis buffer 50 mM Tris-HCl pH 8.0, 250 mM NaCl, 0.5% Triton X-100; blotted for Rev7 and TFII-I
[3] = target: GST-Rev7 (human) (UniProt Q9UI95); assay: pull-down; 35S-labelled in vitro translated TFII-I or fragments incubated with bacterially expressed GST or GST-Rev7, 1 h at room temperature in 25 mM Tris-HCl pH 8.0, 2.7 mM KCl, 137 mM NaCl, 0.05% Tween-20; Glutathione-Sepharose; phosphor imager; only the target purified
[4] = target: Myc-TFII-I wild type (WT) (human) (UniProt P78347); assay: co-IP; HeLa Tet-On cells transfected with differentially tagged TFII-I plasmids; IgG IP and anti-Myc IP, immunoblot

binding [1]: binds
Substance: TFII-I, endogenous (from UniProt P78347 1-998)

binding [2]: binds
Substance: Rev7, endogenous (from UniProt Q9UI95 1-211)

binding [3]: binds
Substance: in vitro translated Myc-TFII-I (full-length) (from UniProt P78347 1-998)

binding [4]: binds
binding [1]: binds
Substance: Myc-TFII-I wild type (WT) (from UniProt P78347 1-998)
